Measured values published in PubChem BioAssay AID493014 (National Center for Advancing Translational Sciences (NCATS), 2011).
The list shows a part of the results. The main result of the screen is listed elsewhere. These columns were measured beside it and carry no call. The list favours compounds with an active or inconclusive main result. Potencies come from curve fits of mixed quality, noted in brackets.

Test: qHTS Assay to Find Inhibitors of Chronic Active B-Cell Receptor Signaling
Details: ABC-DLBCL IkBa-CBG/CBR reporter, luminescence ratio (green luciferase fused to IkBa over red control in TMD8 lymphoma cells), 4 h
Procedure, shortened: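 Doxycycline induced both beetle luciferases in TMD8 lymphoma cells; IKK-driven degradation limits the IkappaBalpha-fused green signal, while red luminescence normalises for cell number and nonspecific effects. Compounds tested up to 46 uM, 4 hrs.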

[1] = measured here: CBR red luminescence, cell number
[2] = measured here: IkBa-CBG green luminescence

| Compound | AC50 [1] | AC50 [2] |
| --- | --- | --- |
| COc1c(O)ccc(/C=N\NC(=O)c2ccc3c(c2)OCO3)c1[N+](=O)[O-] | 11.2 µM [falling, single point] |  |
| COc1ccc(C(C(=O)NCc2ccccc2)N(Cc2cccnc2)C(=O)c2snc(C(N)=O)c2N)cc1OC (configuration not stated) | 31.6 µM [rising, single point] |  |
| O=C(NC(C(=O)c1ccccc1)n1ccc(=O)[nH]c1=O)c1ccccc1 (configuration not stated) | 18.4 µM [falling, single point] |  |
| Cc1cc(C(=O)N/N=C2\CC(=O)CC(C)(C)C2)c2ccccc2n1 | 6.51 µM [rising, partial curve, poor fit] |  |
| CCOC(=O)N1CCN(S(=O)(=O)c2ccc(C(=O)Nc3nc4ccccc4s3)cc2)CC1 | 0.316 µM [falling, full curve, poor fit] |  |
| CN(C)c1ccc(/C=C(/C#N)C(=O)NCc2ccccc2)o1 | 18.4 µM [falling, single point] |  |
| O=C(NCCCN1CCCC1=O)C(=O)NCC1OCCN1S(=O)(=O)c1ccc(Br)cc1 (configuration not stated) | 10 µM [falling, partial curve, poor fit] |  |
| Cc1cnc(NC(=O)c2sc(Nc3ccccc3)nc2N)o1 | 2.82 µM [falling, full curve, poor fit] |  |
| CC(=O)N1CCC(=NNc2ccc(S(N)(=O)=O)cc2[N+](=O)[O-])CC1 | 10 µM [falling, single point] |  |
| N#Cc1c(N)n(-c2cccc(O)c2)c2nc3ccccc3nc12 | 20 µM [rising, single point] |  |
| CCC(=O)Nc1nc(=S)ss1 | 29.1 µM [rising, single point] |  |
| CCc1c(C(=O)Nc2ccc(C)c(C)c2)[nH]c(C)c1C(C)=O | 3.55 µM [rising, partial curve, poor fit] |  |
| COc1cc(/C=C(\C#N)c2nc3ccccc3n2C)cc(OC)c1O | 2.82 µM [rising, partial curve, poor fit] |  |
| O=C(Nc1nccs1)C1CCN(S(=O)(=O)c2c(Cl)cccc2Cl)CC1 | 8.2 µM [falling, partial curve] |  |
| Nc1c(-c2ccccc2)cnc2ncnn12 | 3.55 µM [rising, single point] |  |
| O=C(CNC(=O)c1ccco1)N=Nc1c(O)n(CCc2ccccc2)c2ccccc12 | 3.55 µM [rising, partial curve] | 2.82 µM [falling, full curve] |
| Fc1cc(Cl)c(OCc2noc(-c3ccsc3)n2)c(Cl)c1 | 35.5 µM [rising, single point] |  |
| Cc1nc2c(F)c(F)c(C(F)(F)F)c(F)c2[nH]1 | 0.631 µM [falling, partial curve, poor fit] |  |
| COc1ccc2c(c1)CCc1sc(NC(=O)c3ccco3)nc1-2 | 29.1 µM [falling, single point] |  |
| COCCN(CCOC)Cc1c(C)[nH]c2ccccc2c1=O | 5.8 µM [falling, partial curve, poor fit] |  |
| O=C(NC1CCCCC1)C1CCN(c2nnnn2-c2ccccc2)CC1 | 15.8 µM [rising, partial curve] |  |

A draw from above in order of molecular weight, low to high:

| Compound | AC50 [1] | AC50 [2] |
| --- | --- | --- |
| Nc1c(-c2ccccc2)cnc2ncnn12 | 3.55 µM [rising, single point] |  |
| CN(C)c1ccc(/C=C(/C#N)C(=O)NCc2ccccc2)o1 | 18.4 µM [falling, single point] |  |
| CCc1c(C(=O)Nc2ccc(C)c(C)c2)[nH]c(C)c1C(C)=O | 3.55 µM [rising, partial curve, poor fit] |  |

Continuation:

| Compound | AC50 [1] | AC50 [2] |
| --- | --- | --- |
| O=C(Nc1ccc2c(c1)OCO2)[C@@H]1CCCN1S(=O)(=O)c1cccc2cccnc12 | 2.31 µM [rising, single point] |  |
| CC(C)c1ccc(NC(=O)c2cccc(Br)c2)cc1 | 35.5 µM [falling, single point] |  |
| CN1CCN(C(=O)c2cccc(COc3cc(Cl)ccc3Cl)c2)CC1 | 9.2 µM [rising, partial curve] |  |
| COc1cccc(CN(C(=O)c2ccco2)C2CCS(=O)(=O)C2)c1 (configuration not stated) | 0.794 µM [rising, full curve, poor fit] |  |
| Cc1cc(C(C)(C)C)nc2[nH]n(-c3ccccc3)c(=O)c12 | 1.64 µM [falling, full curve] |  |
| Cc1ccccc1CSCC(=O)c1c(N)n(CC(C)C)c(=O)n(C)c1=O | 29.1 µM [rising, single point] |  |
| NC(=O)c1ccc(SCC(=O)OCC(=O)N2CCN(C(=O)c3ccco3)CC2)c([N+](=O)[O-])c1 | 23.1 µM [rising, partial curve, poor fit] |  |
| O=C(COC(=O)COc1ccccc1)Nc1ncc([N+](=O)[O-])s1 | 10.3 µM [falling, partial curve] |  |
| Cc1[nH]c2ccc(OC(F)(F)F)cc2c1CCN1C(=O)c2ccc(C(=O)O)cc2C1=O | 35.5 µM [falling, single point] | 12.6 µM [rising, partial curve, poor fit] |
| COc1ccccc1Nc1nnc(SCc2cc(=O)n3cc(C)ccc3n2)s1 | 3.26 µM [falling, partial curve, poor fit] | 25.9 µM [falling, partial curve, poor fit] |
| Cc1cccc2c1CC(C)(C)N=C2C1=C(O)CCCC1=O | 15.8 µM [falling, single point] |  |
| Cc1ccc(Cn2nc(C)c(/C=N/NC(=O)c3cccnc3)c2C)cc1 | 35.5 µM [falling, partial curve, poor fit] |  |
| COc1cc(C(=O)Nc2nccs2)c(Br)c(OC)c1OC | 6.51 µM [falling, single point] |  |
| Cc1cc(NC(=O)CCC2CCCCC2)no1 | 1.3 µM [falling, full curve] |  |
| COc1ccccc1C(=O)NCCCn1cc(Br)c(C)n1 | 32.6 µM [rising, single point] |  |
| COc1ccccc1Nc1nnc(SCC(=O)N2CCCC2)s1 | 10 µM [falling, partial curve, poor fit] |  |
| CCOC(=O)c1c(C)[nH]c(C(=O)COC(=O)CNC(=O)c2ccccc2Cl)c1C | 29.1 µM [rising, single point] |  |
| COc1ccc(NC(=O)C2CCCCN2N)cc1OCC(C)C (configuration not stated) | 29.1 µM [falling, single point] |  |
| O=C(NCc1cn2ccsc2n1)c1cccc(C(F)(F)F)c1 | 11.6 µM [rising, partial curve] |  |
| O=C(CN1C(=O)CSc2ccc(S(=O)(=O)N3CCCCC3)cc21)NCc1cccnc1 | 6.51 µM [falling, partial curve, poor fit] |  |
| CCCN(CCC)C1CC(=O)N(Cc2ccccc2)C1=O (configuration not stated) | 17.8 µM [falling, single point] |  |

| Compound | AC50 [1] | AC50 [2] |
| --- | --- | --- |
| CCOC(=O)C1(CCCc2ccccc2)CCN(C(=O)CCc2cnccn2)CC1 | 3.55 µM [rising, full curve, poor fit] |  |
| CCN(CC)CCCN(C(=O)c1ccc(OC)cc1)c1nc(-c2ccc(OC)cc2)cs1 | 28.2 µM [falling, single point] | 2.82 µM [rising, full curve, poor fit] |
| COc1cccc(OC)c1-c1nn2c(-c3ccccc3Cl)nnc2s1 | 0.316 µM [rising, full curve, poor fit] |  |
| CCCCn1c(SCC(=O)Nc2cccc(OC)c2)nc2ccsc2c1=O | 12.6 µM [falling, partial curve] |  |
| Cc1cc(C)c(C)c(S(=O)(=O)NCC(=O)Nc2ccc(F)cc2)c1C | 6.31 µM [falling, full curve] |  |
| N=C(N)SCc1nc2ccccn2c1Br | 29.1 µM [falling, single point] |  |
| O=C(Cc1ccccc1)NCCN1CCCC1 | 0.0891 µM [rising, full curve, poor fit] |  |
| CCNC(=S)N1CCN(CCN=CC2=C(O)CC(c3ccco3)CC2=O)CC1 (configuration not stated) | 18.4 µM [rising, partial curve, poor fit] |  |
| CCOc1ccc(C2=Nc3ccc(Br)cc3C(c3ccc(N4CCOCC4)cc3)=NN2)cc1 | 4.11 µM [rising, full curve, poor fit] |  |
| COc1ccc(-n2cc(-c3ccccc3)c3c(NCc4cccc(Cl)c4)ncnc32)cc1 | 35.5 µM [rising, single point] |  |
| Cc1c(C(=O)OC(C)C)sc(N)c1C(=O)OC(C)C | 5.17 µM [rising, partial curve, poor fit] |  |
| COc1ccc(N(CC(=O)NC2CCCC2)C(=O)c2ccc(C)s2)c(OC)c1 | 17.8 µM [rising, single point] |  |
| COc1cc(/C=N/NC(N)=S)ccc1OC(=O)c1ccc(C)cc1 | 2.91 µM [rising, single point] |  |
| CN(C)c1ccc(C(CNC(=O)c2cccs2)N(C)C)cc1 (configuration not stated) | 22.4 µM [falling, partial curve, poor fit] |  |
| O=C(NCC(=O)N1CCN(Cc2ccccc2)CC1)c1ccc(Br)o1 | 14.1 µM [rising, partial curve, poor fit] |  |
| COc1ccc(C(C)=O)cc1COc1ccc([N+](=O)[O-])c(C)c1 | 0.891 µM [rising, full curve, poor fit] |  |
| O=S(=O)(NCc1ccccc1)c1ccccc1NCc1ccc(Cl)cc1 | 29.1 µM [rising, single point] |  |
| CN(CCc1ccccn1)C(=S)Nc1ccc(Cl)cc1Cl | 35.5 µM [rising, single point] |  |
| Cc1cccc(OC(C)C(=O)N(Cc2cccs2)C2CCS(=O)(=O)C2)c1C (configuration not stated) | 32.6 µM [falling, partial curve, poor fit] |  |
| O=S(=O)(c1cnccc1N1CCN(/N=C/c2ccc(Cl)cc2)CC1)N1CCCCC1 | 0.058 µM [rising, full curve, poor fit] |  |
| O=C(COc1ccc(/C=N/NC(=O)c2ccc(O)cc2)cc1)Nc1cccc([N+](=O)[O-])c1 | 1.41 µM [falling, full curve] |  |
